Laboratory results published in patent US9661848B2, “Substituted 4-cyan-3-(pyridyl)-4-phenylbutanoates, method for the production thereof and uses as herbicides and plant growth regulators” (BAYER CROPSCIENCE AG, priority 2012, dated 2017).
Some of these results come from one statement about several compounds together. Some ranges recur; such a range may be that of the whole group of compounds.

Key:
Format in all cases: in vivo
[1] = tested on: Lolium multiflorum; test: Herbicidal pre-emergence action; conditions: pre-emergence method; 0.32 kg of active substance per hectare
[2] = tested on: Viola tricolor; test: Herbicidal pre-emergence action; conditions: pre-emergence method; 0.32 kg of active substance per hectare
[3] = tested on: Echinochloa crus-galli; test: Herbicidal pre-emergence action; conditions: pre-emergence method; 0.32 kg of active substance per hectare
[4] = tested on: Polygonum convulvus; test: Herbicidal post-emergence action; conditions: post-emergence method; 0.32 kg of active substance per hectare
[5] = tested on: Setaria viridis; test: Herbicidal post-emergence action; conditions: post-emergence method; 0.32 kg of active substance per hectare

SMILES | activity against Lolium multiflorum [1] | activity against Viola tricolor [2] | activity against Echinochloa crus-galli [3] | activity against Polygonum convulvus [4] | activity against Setaria viridis [5]
COC(=O)CC(c1ccnc(Cl)c1)C(C#N)c1ccccc1 (mixture of isomers) [Ibb1027] | 90-100% | 90-100% | – | – | –
COC(=O)C[C@H](c1cncc(F)c1)[C@H](C#N)c1cccc(F)c1 (racemic) [threo-Ibb732] | – | – | 90-100% | 90-100% | –
COC(=O)CC(c1ccnc(Cl)c1)C(C#N)c1ccc(Br)c(F)c1 (mixture of isomers) [Ibb1049] | – | – | – | – | 90-100%
CCOC(=O)C[C@H](c1ccc(Cl)nc1)[C@H](C#N)c1ccc(F)c(F)c1 (racemic) [threo-Ibc910] | – | 90-100% | – | – | –
COC(=O)CC(c1cncc(F)c1)C(C#N)c1ccc(F)c(Cl)c1 (centres unmarked) [Ibb755] | – | 90-100% | – | 90-100% | 90-100%
CCOC(=O)CC(c1ccc(Cl)nc1)C(C#N)c1cccc(Cl)c1 (racemic) [erythro-Ibc896] | – | – | – | 90-100% | –
COC(=O)CC(c1ccnc(Cl)c1)C(C#N)c1ccc(F)c(Cl)c1 (mixture of isomers) [Ibb1052] | 90-100% | – | – | 90-100% | 90-100%
COC(=O)CC(c1ccnc(Cl)c1)C(C#N)c1ccc(F)c(F)c1 (mixture of isomers) [Ibb1045] | 90-100% | – | – | – | –
COC(=O)C[C@@H](c1ccnc(Cl)c1)[C@@H](C#N)c1ccc(F)c(F)c1 [threo-2-Ibb1045] | – | 90-100% | – | – | –
COC(=O)CC(c1ccc(Cl)cn1)C(C#N)c1ccc(F)c(F)c1 (mixture of isomers) [Ibb208] | 90-100% | 90-100% | – | – | 90-100%
COC(=O)C[C@@H](c1cncc(F)c1)[C@H](C#N)c1ccc(F)c(F)c1 [erythro-2-Ibb748] | – | – | – | 90-100% | 90-100%
COC(=O)C[C@@H](c1cncc(F)c1)[C@@H](C#N)c1ccc(F)c(F)c1 [threo-2-Ibb748, (3R,4R)-methyl 4-cyano-4-(3,4-difluorophenyl)-3-(5-fluoropyridin-3-yl)butanoate] | 90-100% | 90-100% | – | – | 90-100%
COC(=O)C[C@H](c1ccnc(Cl)c1)[C@@H](C#N)c1ccc(F)c(F)c1 [erythro-1-Ibb1045] | – | – | – | – | 90-100%
COC(=O)CC(c1ccc(Cl)cn1)C(C#N)c1cccc(F)c1 (centres unmarked) [Ibb192] | – | 90-100% | 90-100% | 90-100% | 90-100%
CCOC(=O)CC(c1ccnc(Cl)c1)C(C#N)c1cccc(F)c1 (centres unmarked) [Ibc1029] | – | 90-100% | – | – | –
COC(=O)CC(c1cncc(F)c1)C(C#N)c1ccc(Cl)c(F)c1 (mixture of isomers) [Ibb751] | – | – | – | – | 90-100%
COC(=O)CC(c1ccnc(Cl)c1)C(C#N)c1ccc(Cl)c(F)c1 (mixture of isomers) [Ibb1048] | – | – | – | 90-100% | 90-100%
COC(=O)C[C@H](c1ccnc(Cl)c1)[C@H](C#N)c1ccc(F)c(F)c1 [threo-1-Ibb1045] | – | – | – | 90-100% | –
COC(=O)CC(c1cncc(F)c1)C(C#N)c1cccc(Cl)c1 (mixture of isomers) [Ibb734] | 90-100% | 90-100% | – | – | –
